Data reported in PubChem BioAssay AID590 (National Center for Advancing Translational Sciences (NCATS), 2007).
About 6,500 (11%) of roughly 59,000 compounds were called active. The shares of active, inactive and inconclusive entries below differ from those in the screen. Rule as the data show it: active = max dye-equivalent concentration above about 10 nM; inconclusive = mostly about 1.1 nM to 9.6 nM; inactive = weaker than that.

experiment: qHTS Assay for Spectroscopic Profiling in A350 Spectral Region; settings: Compound autofluorescence, 340/450 nm, Alexa 350 dye-equivalents; stronger effect = higher value

SMILES	max dye-equivalent concentration
COc1cc2c(C(=O)NC3CCCCCC3)cn(C)c(=O)c2cc1OC	inactive
COC(=O)C1=C(C)N(C)C(C)=C(C(=O)OC)C1c1ccncc1	inconclusive: 3.6 nM
CC(C)(C)S(=O)(=O)c1ccccc1C(=O)O	inconclusive: 2.2 nM
O=C(O)c1ccc(Cl)c(NC(=O)C2CCCN2S(=O)(=O)c2cccc3nsnc23)c1 (centres undefined)	active: 35 nM
CCOc1ccc(C(=O)Cc2ccc3oc(C(=O)O)cc3c2)c(O)c1	inconclusive: 1.5 nM
O=C(NCCc1ccccc1)C1CCCN1C(=O)Nc1ccc(F)cc1 (centres undefined)	active: 19 nM
COc1ccc(-n2c(=O)c(CCc3ccccc3)nc3cnc(N4CCNCC4)nc32)cc1	inconclusive: 8.1 nM
COc1cc(C(=O)Nc2nccs2)ccc1OCc1c(C)noc1C	inconclusive: 3.3 nM
CN(C)C(=O)c1ccc(-c2nccc(NCc3cccnc3)n2)cc1	active: 77 nM
Cc1cccc2cc(C(c3nnnn3C(C)(C)C)N3CCN(C(=O)c4ccco4)CC3)c(=O)[nH]c12 (centres undefined)	inconclusive: 8.3 nM
COc1cc2[nH]c(=O)n(CCCCCC(=O)NCCCN3CCOCC3)c(=O)c2cc1OC	inconclusive: 1.6 nM
Cc1nc(NC2=NCN(C3CCCCC3C)CN2)nc2ccccc12 (centres undefined)	inconclusive: 2.4 nM
N#Cc1nc(Cc2cccc3ccccc23)oc1NCc1ccc(F)cc1	inactive
O=C(O)C(Cc1c[nH]c2ccccc12)NS(=O)(=O)c1cccc2nsnc12 (centres undefined)	inconclusive: 1.2 nM
CN(C)/C=N/c1nc2ccc3c(c2s1)CCCC3	active: 28 nM
C/C(=N/NC1=NCCN1)c1cn(C2=NCCN2)nc1C	inactive
COc1ccc(Nc2nc(Nc3ccc(OC)cc3)nc(-n3[nH]c(=O)c(C)c3C)n2)cc1	inactive
N=C(N)SCCN1CCCCC1	inactive
O=C(NCCCn1ccnc1)c1cccnc1	inactive

SMILES	max dye-equivalent concentration
COc1ccc(C(c2nnnn2CCc2ccccc2)N2CCN(C3CCCC3)CC2)cc1OC (centres undefined)	inactive
O=c1c2ccccc2[nH]c(=S)n1CCCN1CCN(C2CCCCC2)CC1	inconclusive: 1.2 nM
Cc1cc(C(F)F)n2nc(C(=O)Nc3ccc(S(=O)(=O)N4CCCCCC4)cc3)nc2n1	inconclusive: 2.2 nM
CC(=O)Nc1ccc(N/C=C/C(=O)c2ccco2)cc1	inactive
COc1ccc(OC)c(-c2[nH]nc3c2C(c2ccco2)C(C#N)=C(N)O3)c1 (centres undefined)	inconclusive: 6.4 nM
CC(C)CCn1cnc2c(c1=O)c1nc3ccccc3nc1n2Cc1ccc2c(c1)OCO2	active: 130 nM
COc1ccc(N(CC(=O)NC2CCCC2)C(=O)c2ccc(N3CCCCC3)nc2)cc1	active: 19 nM
COc1ccc(C2=CC(c3sccc3C)n3nnnc3N2)cc1 (centres undefined)	inconclusive: 5.2 nM
Cc1occc1C(=O)Nc1cccnc1	inactive
O=C(Nc1ccc2oc(-c3ccc(F)cc3)nc2c1)c1ccccc1F	active: 26 nM
CS(=O)(=O)N1CCN(C(=O)c2cc(-c3cccs3)nc3ccccc23)CC1	active: 910 nM
CC(=O)Nc1cnc(NC(=O)c2cccc(F)c2)cc1C	inactive
COc1ccccc1N1CCN(C(c2cc3cc(C)ccc3[nH]c2=O)c2nnnn2C2CCCC2)CC1 (centres undefined)	inconclusive: 4.8 nM
CCOC(=O)c1ccc(NCC(O)COc2ccccc2)cc1 (centres undefined)	inconclusive: 2 nM
COc1cc(NC(=O)N2CCOCC2)cc(OC)c1	inactive
COc1ccc(C2CC(=O)N3C(=C2C#N)SCC3(O)c2ccccc2)cc1 (centres undefined)	inactive
COC(=O)c1ccccc1NC(=O)Nc1cnccn1	inconclusive: 1.1 nM
Cc1nc2cccc(C(=O)NC3CCCCC3)c2o1	inconclusive: 2.2 nM
COc1ccc(S(=O)(=O)NC2CCCC2)cc1Br	inconclusive: 2.8 nM
COc1cc(CNc2ccc3[nH]c(=O)[nH]c3c2)cc(Cl)c1OCC(=O)NC(C)(C)C	inconclusive: 3.6 nM

3 consecutive compounds already listed:
SMILES	max dye-equivalent concentration
CS(=O)(=O)N1CCN(C(=O)c2cc(-c3cccs3)nc3ccccc23)CC1	active: 910 nM
CC(=O)Nc1cnc(NC(=O)c2cccc(F)c2)cc1C	inactive
COc1ccccc1N1CCN(C(c2cc3cc(C)ccc3[nH]c2=O)c2nnnn2C2CCCC2)CC1 (centres undefined)	inconclusive: 4.8 nM

Next part:

SMILES	max dye-equivalent concentration
CCCc1nc(NCc2ccncc2)c2nnn(Cc3ccccc3F)c2n1	inconclusive: 1.3 nM
O=C(CCS(=O)(=O)c1cccc2nsnc12)N1CCN(C(=O)c2ccco2)CC1	inactive
c1ccc(CN2COc3c(ccc4c5c(ccc34)CN(Cc3ccccc3)CO5)C2)cc1	inactive
Cc1c(Cl)cnc(NC(=O)COC(=O)C(NC(=O)c2ccco2)C(C)C)c1Cl (centres undefined)	inconclusive: 2 nM
c1ccc2sc(NC3=NCN(Cc4ccc5c(c4)OCO5)CN3)nc2c1	inconclusive: 1.7 nM
CCOC(=O)C1CCCN(c2nc3ccccc3nc2C(C#N)C(=O)NCc2ccccc2)C1 (centres undefined)	inconclusive: 6 nM
Fc1ccc2nc(Nc3nc4c(s3)CCCC4)sc2c1	inconclusive: 8.3 nM
COc1ccc(C(=O)Nc2ccccc2C(=O)NCc2ccco2)cc1OC	active: 250 nM
CCn1c(SCC(=O)Nc2ccc3c(c2)OCCO3)nnc1-c1ccccn1	inconclusive: 6.1 nM
O=C(NCCCN1CCOCC1)C(C(=O)c1ccccc1)n1ccccc1=O (centres undefined)	inconclusive: 1.1 nM
COc1cccc(OCC(=O)Nc2ccccc2NC(C)=O)c1	inactive
CCN1CCc2nc(N)oc2CC1	inconclusive: 3.1 nM
Cc1nn2c(N3CCOCC3)c3c(nc2c1-c1ccccc1)CCCC3	inconclusive: 4.6 nM
N#Cc1c(N)nc2c(c1-c1ccncc1)CCCCC2	active: 100 nM
Cc1nc(Nc2ccncc2)c2oc3ccccc3c2n1	inactive
COc1ccc(S(=O)(=O)Nc2nncs2)cc1	inactive
CCOC(=O)CSc1nc2ccsc2c(=O)n1C1CCN(C(=O)OCC)CC1	inconclusive: 7.5 nM
CCCCOc1ccc(C(=O)NC)cc1	inconclusive: 4.6 nM
CCOC(=O)C1=C(C)NC(SCC(=O)Nc2cc(C)on2)=C(C#N)C1c1cccs1 (centres undefined)	inconclusive: 3.8 nM
